PubChem BioAssay AID1259254 | NCATS – 2017
Test: 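Finding genes that stop cells copying their DNA twice in one cycle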 (primary screen). System: human HCT116 colorectal cancer cells. Knock-down reagent: single siRNA against human genes. Duration: 3 days. Measurement: 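Imaged Hoechst DNA stain sorts each cell into a cycle phase by DNA amount; per plate, G2 fraction set to 0% for non-targeting and 100% for GMNN siRNA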. Reading the numbers: G2 robust z-score: higher = more G2 cells, more excess DNA replication. Active means: 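An siRNA counts as active if its G2 robust z-score lies at least 5 MADs above the screen median; here such calls match roughly 38% of GMNN control or more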.
Here is one part, drawn at random, of about 59,000 deposited reagents. About 1,550 of them (2.6%) were called active. 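G2 share is only a proxy for re-replication; each gene was hit by three separate siRNAs, and active genes were retested.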 Entries without a mark were called inactive. Reagents against one gene are numbered here. Further read-outs or replicates are left out here. The record does not give: the amount of reagent.

| gene knocked down | siRNA no. | G2 robust z-score |
| --- | --- | --- |
| CDK11A (cyclin dependent kinase 11A) | 1 | 0.781 |
| CDK11A (cyclin dependent kinase 11A) | 2 | 0.868 |
| CDK11A (cyclin dependent kinase 11A) | 3 | -0.155 |
| DDX50 (DExD-box helicase 50) | 1 | 0.25 |
| DDX50 (DExD-box helicase 50) | 2 | -0.0019 |
| DDX50 (DExD-box helicase 50) | 3 | -1.05 |
| PPP4R2 (protein phosphatase 4 regulatory subunit 2) | 1 | -0.743 |
| PPP4R2 (protein phosphatase 4 regulatory subunit 2) | 2 | -1.54 |
| PPP4R2 (protein phosphatase 4 regulatory subunit 2) | 3 | 1.85 |
| CDC14B (cell division cycle 14B) | 1 | 0.532 |
| CDC14B (cell division cycle 14B) | 2 | -0.402 |
| CDC14B (cell division cycle 14B) | 3 | -0.0856 |
| WHAMM | 1 | -0.961 |
| WHAMM | 2 | 0.21 |
| WHAMM | 3 | -0.927 |
| NUDT17 (nudix hydrolase 17) | 1 | 4.68 |
| NUDT17 (nudix hydrolase 17) | 2 | 1.57 |
| NUDT17 (nudix hydrolase 17) | 3 | 2.06 |
| C10orf90 (chromosome 10 open reading frame 90) | 1 | 0.748 |
| C10orf90 (chromosome 10 open reading frame 90) | 2 | 0.465 |
| C10orf90 (chromosome 10 open reading frame 90) | 3 | -0.771 |
| STMN3 (stathmin 3) | 1 | -0.826 |
| STMN3 (stathmin 3) | 2 | 3.55 |
| STMN3 (stathmin 3) | 3 | 0.485 |
| GNRHR (gonadotropin releasing hormone receptor) | 1 | 0.959 |
| GNRHR (gonadotropin releasing hormone receptor) | 2 | 0.771 |
| GNRHR (gonadotropin releasing hormone receptor) | 3 | 0.479 |
| PARM1 (prostate androgen-regulated mucin-like protein 1) | 1 | 0.0939 |
| PARM1 (prostate androgen-regulated mucin-like protein 1) | 2 | 0.579 |
| PARM1 (prostate androgen-regulated mucin-like protein 1) | 3 | -0.785 |
| OTX1 (orthodenticle homeobox 1) | 1 | 2.19 |
| OTX1 (orthodenticle homeobox 1) | 2 | -0.308 |
| OTX1 (orthodenticle homeobox 1) | 3 | -0.0129 |
| HM13 (histocompatibility minor 13) | 1 | 0.336 |
| HM13 (histocompatibility minor 13) | 2 | -0.692 |
| HM13 (histocompatibility minor 13) | 3 | -0.527 |
| IDI2 (isopentenyl-diphosphate delta isomerase 2) | 1 | 0.33 |
| IDI2 (isopentenyl-diphosphate delta isomerase 2) | 2 | 0.67 |
| IDI2 (isopentenyl-diphosphate delta isomerase 2) | 3 | 0.166 |
| LOC728877 (Zn regulated GTPase metalloprotein activator 1C pseudogene) | 1 | 4.15 |
| LOC728877 (Zn regulated GTPase metalloprotein activator 1C pseudogene) | 2 | 0.471 |
| LOC728877 (Zn regulated GTPase metalloprotein activator 1C pseudogene) | 3 | 2.95 |
| HCG27 (HLA complex group 27) | 1 | -1.15 |
| HCG27 (HLA complex group 27) | 2 | -0.945 |
| HCG27 (HLA complex group 27) | 3 | -0.388 |
| NRSN2 (neurensin 2) | 1 | 0.161 |
| NRSN2 (neurensin 2) | 2 | 0.34 |
| NRSN2 (neurensin 2) | 3 | -0.454 |
| LINC03007 (long independently transcribed non-coding RNA 3007) | 1 | 0.243 |
| LINC03007 (long independently transcribed non-coding RNA 3007) | 2 | 0.586 |
| LINC03007 (long independently transcribed non-coding RNA 3007) | 3 | 0.535 |
| NPRL2 (NPR2 like, GATOR1 complex subunit) | 1 | 4.09 |
| NPRL2 (NPR2 like, GATOR1 complex subunit) | 2 | 1.5 |
| NPRL2 (NPR2 like, GATOR1 complex subunit) | 3 | 2.1 |
| GRM5 (glutamate metabotropic receptor 5) | 1 | -0.554 |
| GRM5 (glutamate metabotropic receptor 5) | 2 | 2.83 |
| GRM5 (glutamate metabotropic receptor 5) | 3 | -0.172 |
| TMEM168 (transmembrane protein 168) | 1 | -0.213 |
| TMEM168 (transmembrane protein 168) | 2 | -0.594 |
| TMEM168 (transmembrane protein 168) | 3 | 1.78 |
| ACE (angiotensin I converting enzyme) | 1 | -1.23 |
| ACE (angiotensin I converting enzyme) | 2 | -0.623 |
| ACE (angiotensin I converting enzyme) | 3 | -0.256 |
| R3HCC1 (R3H domain and coiled-coil containing 1) | 1 | 1.37 |
| R3HCC1 (R3H domain and coiled-coil containing 1) | 2 | 1.27 |
| R3HCC1 (R3H domain and coiled-coil containing 1) | 3 | 0.0769 |
| GTF2H5 (general transcription factor IIH subunit 5) | 1 | 0.79 |
| GTF2H5 (general transcription factor IIH subunit 5) | 2 | 0.14 |
| GTF2H5 (general transcription factor IIH subunit 5) | 3 | -0.827 |
